The target in the experiment is T1, JUNB (human (endogenous in CAPAN1 and CAPAN2)) (UniProt P17275).
T1 sequence: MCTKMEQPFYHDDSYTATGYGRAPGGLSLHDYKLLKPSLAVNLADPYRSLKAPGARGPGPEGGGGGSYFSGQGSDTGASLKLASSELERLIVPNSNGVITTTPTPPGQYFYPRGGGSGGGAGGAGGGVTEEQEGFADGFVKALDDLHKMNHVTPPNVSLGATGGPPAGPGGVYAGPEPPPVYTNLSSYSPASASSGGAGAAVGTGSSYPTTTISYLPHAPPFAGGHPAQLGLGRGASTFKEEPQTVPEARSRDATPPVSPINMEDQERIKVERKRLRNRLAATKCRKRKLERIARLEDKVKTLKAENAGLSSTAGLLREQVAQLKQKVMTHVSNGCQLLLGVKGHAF
The experiment in a line: co-IP; JUNB pulldown with antibody and protein A agarose beads from Triton X-100 lysates (500 ug protein) of CAPAN1 and CAPAN2 cells, antibody overnight at 4 °C; immunoblot for JUNB, HDAC1 and β-actin; IgG isotype control and input.

The chains behind the UniProt entries cited, without tags or fusion partners.
UniProt Q13547: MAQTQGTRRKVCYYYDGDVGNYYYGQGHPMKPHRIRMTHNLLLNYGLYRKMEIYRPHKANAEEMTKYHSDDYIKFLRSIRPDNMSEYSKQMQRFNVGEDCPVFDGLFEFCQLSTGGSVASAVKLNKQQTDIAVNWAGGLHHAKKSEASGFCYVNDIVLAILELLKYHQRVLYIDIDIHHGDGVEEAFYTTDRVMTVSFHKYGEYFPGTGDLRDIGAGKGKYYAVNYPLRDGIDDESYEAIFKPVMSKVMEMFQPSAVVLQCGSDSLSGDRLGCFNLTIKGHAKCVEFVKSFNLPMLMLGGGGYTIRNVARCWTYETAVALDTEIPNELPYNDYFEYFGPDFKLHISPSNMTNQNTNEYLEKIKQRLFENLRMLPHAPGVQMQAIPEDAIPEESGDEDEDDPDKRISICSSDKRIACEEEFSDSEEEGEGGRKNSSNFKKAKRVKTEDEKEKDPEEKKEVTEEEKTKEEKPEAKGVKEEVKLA

Results are given in words; binding and its absence hold for the method and conditions named. In cells and extracts the contact can be indirect. Some entries that bind do so weakly or less than the wild type.

Turning to “HDAC1 (from UniProt Q13547 1-482) (enzyme)”, the binding entry is “binds”.

Source of the values: publication PMC11704331.
